Laboratory results: PubChem BioAssay AID1224830 (NIAID, 2016)
The whole screen tested about 18,000 reagents; below is a random part of them. About 2,900 of all reagents (16%) were called active. 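Calls are made per well; low scores hint the gene aids the LPS response, high scores that it dampens it.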 Entries without a mark were called inactive. Repeated entries: four replicate wells of each siRNA pool. No sequences are given here.

Screen: 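Host factors that control LPS-induced TNF expression in human macrophages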 (primary screen)
Cell system: human THP-1 monocytic leukaemia cells, TNF dual-luciferase reporter clone, PMA-differentiated to macrophage-like cells
Knock-down reagent: siRNA pool against human genes, 50 nM
Timing: LPS for 4 h, given about 3 days after siRNA transfection
Conditions: bacterial LPS (TLR4 ligand), 10 ng/ml
Measured: 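Ratio of firefly to renilla light, scaled to the plate median and expressed as a robust z-score per replicate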
Direction: TNF reporter robust z-score: higher = stronger TNF reporter response to LPS
Call rule: 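a well is active when its z-score exceeds 2.8 or falls below -1.5; control wells carry no call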

OSBPL2 (oxysterol binding protein like 2) — TNF reporter robust z-score: 0.2
OSBPL2 (oxysterol binding protein like 2) — TNF reporter robust z-score: 0.81
OSBPL2 (oxysterol binding protein like 2) — TNF reporter robust z-score: 1.76
OSBPL2 (oxysterol binding protein like 2) — TNF reporter robust z-score: 1.4
ELK3 (ETS transcription factor ELK3) — TNF reporter robust z-score: 0.32
ELK3 (ETS transcription factor ELK3) — TNF reporter robust z-score: 1.1
ELK3 (ETS transcription factor ELK3) — TNF reporter robust z-score: 0.04
ELK3 (ETS transcription factor ELK3) — TNF reporter robust z-score: 0.95
PIDD1 (p53-induced death domain protein 1) — TNF reporter robust z-score: -0.53
PIDD1 (p53-induced death domain protein 1) — TNF reporter robust z-score: -0.15
PIDD1 (p53-induced death domain protein 1) — TNF reporter robust z-score: -1.18
PIDD1 (p53-induced death domain protein 1) — TNF reporter robust z-score: -0.57
MNX1 (motor neuron and pancreas homeobox 1) — TNF reporter robust z-score: 1.28
MNX1 (motor neuron and pancreas homeobox 1) — TNF reporter robust z-score: 1.43
MNX1 (motor neuron and pancreas homeobox 1) — TNF reporter robust z-score: 1.01
MNX1 (motor neuron and pancreas homeobox 1) — TNF reporter robust z-score: 2.22
SPACA5 (sperm acrosome associated 5) — TNF reporter robust z-score: 0.85
SPACA5 (sperm acrosome associated 5) — TNF reporter robust z-score: -0.02
SPACA5 (sperm acrosome associated 5) — TNF reporter robust z-score: -0.06
SPACA5 (sperm acrosome associated 5) — TNF reporter robust z-score: 0.22
TULP2 (TUB like protein 2) — TNF reporter robust z-score: -0.55
TULP2 (TUB like protein 2) — TNF reporter robust z-score: -0.54
TULP2 (TUB like protein 2) — TNF reporter robust z-score: -0.97
TULP2 (TUB like protein 2) — TNF reporter robust z-score: -0.4
TARP (TCR gamma alternate reading frame protein) — TNF reporter robust z-score: -0.74
TARP (TCR gamma alternate reading frame protein) — TNF reporter robust z-score: -0.79
TARP (TCR gamma alternate reading frame protein) — TNF reporter robust z-score: -0.89
TARP (TCR gamma alternate reading frame protein) — TNF reporter robust z-score: 0.36
NEK6 (NIMA related kinase 6) — TNF reporter robust z-score: 0.38
NEK6 (NIMA related kinase 6) — TNF reporter robust z-score: 1.05
NEK6 (NIMA related kinase 6) — TNF reporter robust z-score: 0.67
NEK6 (NIMA related kinase 6) — TNF reporter robust z-score: 3.54 (active)

Records listed above with an active call (1):
NEK6 (NIMA related kinase 6) — TNF reporter robust z-score: 3.54 (active)

Continued.
NUFIP2 (nuclear FMR1 interacting protein 2) — TNF reporter robust z-score: 0.58
NUFIP2 (nuclear FMR1 interacting protein 2) — TNF reporter robust z-score: 1.13
NUFIP2 (nuclear FMR1 interacting protein 2) — TNF reporter robust z-score: 1.14
NUFIP2 (nuclear FMR1 interacting protein 2) — TNF reporter robust z-score: 1.11
MID1IP1 (MID1 interacting protein 1) — TNF reporter robust z-score: -0.07
MID1IP1 (MID1 interacting protein 1) — TNF reporter robust z-score: -0.4
MID1IP1 (MID1 interacting protein 1) — TNF reporter robust z-score: -0.41
MID1IP1 (MID1 interacting protein 1) — TNF reporter robust z-score: 1.68
NTRK3 (neurotrophic receptor tyrosine kinase 3) — TNF reporter robust z-score: 0.88
NTRK3 (neurotrophic receptor tyrosine kinase 3) — TNF reporter robust z-score: 1.96
NTRK3 (neurotrophic receptor tyrosine kinase 3) — TNF reporter robust z-score: 1.28
NTRK3 (neurotrophic receptor tyrosine kinase 3) — TNF reporter robust z-score: -0.44
IBA57 (iron-sulfur cluster assembly factor IBA57) — TNF reporter robust z-score: -1.57 (active)
IBA57 (iron-sulfur cluster assembly factor IBA57) — TNF reporter robust z-score: -0.78
IBA57 (iron-sulfur cluster assembly factor IBA57) — TNF reporter robust z-score: -1.25
IBA57 (iron-sulfur cluster assembly factor IBA57) — TNF reporter robust z-score: -0.11
